Experimental data reported in the supplement of paper PMC8728848.
Some of the results follow.

Assays:
Assay in all cases: glycan array binding signal (z-score within array); higher = stronger binding
Details in all cases: glycan notation: IUPAC condensed, linker removed
[1] = target: Neu5Ac(a2-6)Gal(b1-4)GlcNAc(b1-3)Gal(b1-4)GlcNAc(b1-3)Gal(b1-4)GlcNAc(b1-2)Man(a1-3)[Neu5Ac(a2-6)Gal(b1-4)GlcNAc(b1-3)Gal(b1-4)GlcNAc(b1-3)Gal(b1-4)GlcNAc(b1-2)Man(a1-6)]GalNAc
Procedure, shortened: (§1)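 Glycan array binding is given as a within-array Z-score, which can be read as non-binding when negative. The arrays, 3228 of them, came from the Consortium for Functional Glycomics database and were retained only where the protein sequence was available. Z-scores were averaged across arrays of the same protein sequence at different concentrations or buffers and across linkers.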

[2] = target: Neu5Ac(a2-6)Gal(b1-4)GlcNAc(b1-3)Gal(b1-4)GlcNAc(b1-3)GalNAc
Procedure, shortened: as §1

[3] = target: Neu5Ac(a2-6)Gal(b1-4)GlcNAc(b1-3)Gal(b1-4)GlcNAc(b1-3)[Neu5Ac(a2-6)Gal(b1-4)GlcNAc(b1-3)Gal(b1-4)GlcNAc(b1-6)]GalNAc
Procedure, shortened: as §1

[4] = target: Neu5Ac(a2-6)Gal(b1-4)GlcNAc(b1-3)Gal(b1-4)GlcNAc(b1-6)[Gal(b1-3)]GalNAc
Procedure, shortened: as §1

[5] = target: Neu5Ac(a2-6)Gal(b1-4)GlcNAc(b1-3)Gal(b1-4)[Fuc(a1-3)]GlcNAc(b1-3)Gal(b1-4)[Fuc(a1-3)]GlcNAc
Procedure, shortened: as §1

[6] = target: Neu5Ac(a2-6)Gal(b1-4)GlcNAc(b1-3)GalNAc
Procedure, shortened: as §1

[7] = target: Neu5Ac(a2-6)Gal(b1-4)GlcNAc(b1-3)[Neu5Ac(a2-6)Gal(b1-4)GlcNAc(b1-6)]GalNAc
Procedure, shortened: as §1

[8] = target: Neu5Ac(a2-6)Gal(b1-4)GlcNAc(b1-6)GalNAc
Procedure, shortened: as §1

[9] = target: Neu5Ac(a2-6)Gal(b1-4)GlcNAc(b1-6)[Gal(b1-3)GlcNAc(b1-3)]Gal(b1-4)Glc
Procedure, shortened: as §1

[10] = target: Neu5Ac(a2-6)Gal(b1-4)GlcNAc(b1-6)[Gal(b1-3)]GalNAc
Procedure, shortened: as §1

[11] = target: Neu5Ac(a2-6)Gal(b1-4)GlcNAc6S
Procedure, shortened: as §1

Neu5Ac(a2-6)GalNAc = target: Neu5Ac(a2-6)GalNAc
Procedure, shortened: as §1

[12] = target: Neu5Ac(a2-6)GalNAc(b1-4)GlcNAc
Procedure, shortened: as §1

[13] = target: Neu5Ac(a2-6)GalNAc(b1-4)GlcNAc6S
Procedure, shortened: as §1

[14] = target: Neu5Ac(a2-6)GlcNAc(b1-4)GlcNAc
Procedure, shortened: as §1

[15] = target: Neu5Ac(a2-6)GlcNAc(b1-4)GlcNAc(b1-4)GlcNAc
Procedure, shortened: as §1

Neu5Ac(a2-8)Neu5Ac = target: Neu5Ac(a2-8)Neu5Ac
Procedure, shortened: as §1

[16] = target: Neu5Ac(a2-8)Neu5Ac(a2-3)Gal(b1-3)GalNAc(b1-4)[Neu5Ac(a2-3)]Gal(b1-4)Glc
Procedure, shortened: as §1

[17] = target: Neu5Ac(a2-8)Neu5Ac(a2-3)Gal(b1-3)GalNAc(b1-4)[Neu5Ac(a2-8)Neu5Ac(a2-3)]Gal(b1-4)Glc
Procedure, shortened: as §1

[18] = target: Neu5Ac(a2-8)Neu5Ac(a2-3)Gal(b1-4)Glc
Procedure, shortened: as §1

[19] = target: Neu5Ac(a2-8)Neu5Ac(a2-3)Gal(b1-4)GlcNAc
Procedure, shortened: as §1

[20] = target: Neu5Ac(a2-8)Neu5Ac(a2-3)[Gal(b1-3)GalNAc(b1-4)]Gal(b1-4)Glc
Procedure, shortened: as §1

[21] = target: Neu5Ac(a2-8)Neu5Ac(a2-3)[GalNAc(b1-4)]Gal(b1-4)Glc
Procedure, shortened: as §1

[22] = target: Neu5Ac(a2-8)Neu5Ac(a2-8)Neu5Ac
Procedure, shortened: as §1

[23] = target: Neu5Ac(a2-8)Neu5Ac(a2-8)Neu5Ac(a2-3)Gal(b1-4)Glc
Procedure, shortened: as §1

[24] = target: Neu5Ac(a2-8)Neu5Ac(a2-8)Neu5Ac(a2-3)[Gal(b1-3)GalNAc(b1-4)]Gal(b1-4)Glc
Procedure, shortened: as §1

[25] = target: Neu5Ac(a2-8)Neu5Ac(a2-8)Neu5Ac(a2-3)[GalNAc(b1-4)]Gal(b1-4)Glc
Procedure, shortened: as §1

[26] = target: Neu5Ac(a2-8)Neu5Ac(a2-8)Neu5Ac(a2-8)Neu5Ac(a2-3)[GalNAc(b1-4)]Gal(b1-4)Glc
Procedure, shortened: as §1

[27] = target: Neu5Ac(a2-8)Neu5Gc(a2-3)Gal(b1-4)GlcNAc
Procedure, shortened: as §1

[28] = target: Neu5Ac(b2-6)Gal(b1-4)GlcNAc
Procedure, shortened: as §1

Neu5Ac(b2-6)GalNAc = target: Neu5Ac(b2-6)GalNAc
Procedure, shortened: as §1

[29] = target: Neu5Ac9Ac(a2-3)Gal(b1-3)GlcNAc
Procedure, shortened: as §1

[30] = target: Neu5Ac9Ac(a2-3)Gal(b1-4)GlcNAc
Procedure, shortened: as §1

[31] = target: Neu5Ac9Ac(a2-6)Gal(b1-4)GlcNAc
Procedure, shortened: as §1

[32] = target: Neu5Gc(a2-3)Gal(b1-3)GlcNAc
Procedure, shortened: as §1

[33] = target: Neu5Gc(a2-3)Gal(b1-3)[Fuc(a1-4)]GlcNAc
Procedure, shortened: as §1

Neu5Gc(a2-3)Gal(b1-4)Glc = target: Neu5Gc(a2-3)Gal(b1-4)Glc
Procedure, shortened: as §1

[34] = target: Neu5Gc(a2-3)Gal(b1-4)GlcNAc
Procedure, shortened: as §1

[35] = target: Neu5Gc(a2-3)Gal(b1-4)GlcNAc(b1-3)Gal(b1-4)GlcNAc(b1-2)Man(a1-3)[Neu5Gc(a2-3)Gal(b1-4)GlcNAc(b1-3)Gal(b1-4)GlcNAc(b1-2)Man(a1-6)]Man(b1-4)GlcNAc(b1-4)GlcNAc
Procedure, shortened: as §1

[36] = target: Neu5Gc(a2-3)Gal(b1-4)[Fuc(a1-3)]GlcNAc
Procedure, shortened: as §1

[37] = target: Neu5Gc(a2-6)Gal(b1-4)GlcNAc
Procedure, shortened: as §1

Neu5Gc(a2-6)GalNAc = target: Neu5Gc(a2-6)GalNAc
Procedure, shortened: as §1

[38] = target: Neu5Gc(a2-8)Neu5Ac(a2-3)Gal(b1-4)GlcNAc
Procedure, shortened: as §1

[39] = target: Neu5Gc(a2-8)Neu5Gc(a2-3)Gal(b1-4)GlcNAc
Procedure, shortened: as §1

[40] = target: Neu5Gc(a2-8)Neu5Gc(a2-3)Gal(b1-4)GlcNAc(b1-3)Gal(b1-4)GlcNAc
Procedure, shortened: as §1

B1: EULS2 M1 (Oryza sativa) (protein)
chain: MVYCRANPNYAMTARNGAVVLAPANPKDEYQHWIKDMRWSTSIKDEEGYPAFALVNKATGQAIKHSLGQSHPVRLVPYNPEVMDESVLWTESRDVGNGFRCIRMVNNIYLNFDAFHGDKYHGGVRDGTDIVLWKLCEGDNQRWKIQPYYILEQKLISEEDLNSAVDHHHHHH
glycan array binding signal (z-score) [1]: 1.77 | glycan array binding signal (z-score) [2]: -0.801 | glycan array binding signal (z-score) [3]: 1.49 | glycan array binding signal (z-score) [4]: 0.283 | glycan array binding signal (z-score) [5]: 1.21 | glycan array binding signal (z-score) [6]: 0.427 | glycan array binding signal (z-score) [7]: -0.578 | glycan array binding signal (z-score) [8]: -0.939 | glycan array binding signal (z-score) [9]: -0.244 | glycan array binding signal (z-score) [10]: -0.14 | glycan array binding signal (z-score) [11]: -0.304 | glycan array binding signal (z-score) (Neu5Ac(a2-6)GalNAc): 0.134 | glycan array binding signal (z-score) [12]: -0.931 | glycan array binding signal (z-score) [13]: -0.235 | glycan array binding signal (z-score) [14]: -0.384 | glycan array binding signal (z-score) [15]: -0.703 | glycan array binding signal (z-score) (Neu5Ac(a2-8)Neu5Ac): 0.028 | glycan array binding signal (z-score) [16]: -1 | glycan array binding signal (z-score) [17]: -0.301 | glycan array binding signal (z-score) [18]: -0.26 | glycan array binding signal (z-score) [19]: 0.305 | glycan array binding signal (z-score) [20]: -0.358 | glycan array binding signal (z-score) [21]: -0.536 | glycan array binding signal (z-score) [22]: -0.565 | glycan array binding signal (z-score) [23]: -0.186 | glycan array binding signal (z-score) [24]: 0.315 | glycan array binding signal (z-score) [25]: -0.743 | glycan array binding signal (z-score) [26]: -0.548 | glycan array binding signal (z-score) [27]: -0.088 | glycan array binding signal (z-score) [28]: 0.277 | glycan array binding signal (z-score) (Neu5Ac(b2-6)GalNAc): -0.154 | glycan array binding signal (z-score) [29]: -1.07 | glycan array binding signal (z-score) [30]: 0.043 | glycan array binding signal (z-score) [31]: -0.126 | glycan array binding signal (z-score) [32]: -0.924 | glycan array binding signal (z-score) [33]: -0.113 | glycan array binding signal (z-score) (Neu5Gc(a2-3)Gal(b1-4)Glc): 1.04 | glycan array binding signal (z-score) [34]: -1.3 | glycan array binding signal (z-score) [35]: 0.315 | glycan array binding signal (z-score) [36]: -0.714 | glycan array binding signal (z-score) [37]: 0.007 | glycan array binding signal (z-score) (Neu5Gc(a2-6)GalNAc): -0.307 | glycan array binding signal (z-score) [38]: -0.41 | glycan array binding signal (z-score) [39]: -0.547 | glycan array binding signal (z-score) [40]: -0.26
